Laboratory results from patent US20180038865A1, “CD9 AS A THERAPEUTIC TARGET FOR HEMATOLOGIC MALIGNANCIES” (The Chinese and Knowledge Transfer Services, priority 2016, published 2018).
Results are given in words; binding and its absence hold for the method and conditions named. Binding seen in cells or lysates may run through a third protein. Some binding calls cover weakened binding; strength is not graded here.

The chains behind the UniProt entries cited, without tags or fusion partners. Where a name states a change or a piece, a line headed by the entry shows the natural chain unless it says otherwise.
UniProt P13612: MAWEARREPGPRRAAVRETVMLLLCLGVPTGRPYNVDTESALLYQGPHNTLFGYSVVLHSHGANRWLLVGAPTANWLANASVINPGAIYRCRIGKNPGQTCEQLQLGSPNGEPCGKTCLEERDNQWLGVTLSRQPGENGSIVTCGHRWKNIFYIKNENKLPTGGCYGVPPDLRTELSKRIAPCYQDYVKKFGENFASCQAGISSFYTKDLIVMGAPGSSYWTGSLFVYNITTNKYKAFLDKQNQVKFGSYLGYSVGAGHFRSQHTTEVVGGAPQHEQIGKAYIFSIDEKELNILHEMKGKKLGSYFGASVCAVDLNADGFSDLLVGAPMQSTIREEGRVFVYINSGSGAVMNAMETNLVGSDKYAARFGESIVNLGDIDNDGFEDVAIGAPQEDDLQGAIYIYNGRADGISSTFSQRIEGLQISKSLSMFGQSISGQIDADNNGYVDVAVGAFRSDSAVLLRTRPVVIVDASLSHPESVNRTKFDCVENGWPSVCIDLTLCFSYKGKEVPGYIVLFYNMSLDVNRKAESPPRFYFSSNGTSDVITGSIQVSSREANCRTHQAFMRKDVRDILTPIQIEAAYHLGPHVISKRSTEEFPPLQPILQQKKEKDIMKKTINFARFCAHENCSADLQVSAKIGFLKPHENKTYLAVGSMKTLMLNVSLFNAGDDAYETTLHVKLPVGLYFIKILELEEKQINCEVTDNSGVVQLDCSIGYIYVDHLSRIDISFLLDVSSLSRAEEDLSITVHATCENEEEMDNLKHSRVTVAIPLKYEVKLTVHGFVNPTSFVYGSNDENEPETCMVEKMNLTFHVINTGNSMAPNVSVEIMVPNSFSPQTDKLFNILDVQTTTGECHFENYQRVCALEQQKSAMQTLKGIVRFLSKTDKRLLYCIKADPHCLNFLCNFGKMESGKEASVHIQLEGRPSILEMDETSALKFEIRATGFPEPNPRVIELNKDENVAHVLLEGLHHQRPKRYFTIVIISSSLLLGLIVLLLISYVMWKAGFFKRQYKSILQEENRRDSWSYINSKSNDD
UniProt P21926: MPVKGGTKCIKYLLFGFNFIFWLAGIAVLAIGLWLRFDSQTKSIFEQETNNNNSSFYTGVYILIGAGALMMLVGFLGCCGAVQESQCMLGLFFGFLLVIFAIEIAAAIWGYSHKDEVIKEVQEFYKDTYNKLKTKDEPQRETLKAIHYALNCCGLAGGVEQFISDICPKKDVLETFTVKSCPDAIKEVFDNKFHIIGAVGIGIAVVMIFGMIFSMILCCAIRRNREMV

Target: integrin very late antigen-4 (VLA-4, composed of α4β1 subunits) (UniProt P13612)
Test: co-immunoprecipitation from B-ALL cell lysates

- binding: binds
Substance: human CD9 protein (from UniProt P21926 2-228)
